# According to the supplement of paper PMC8728848:
# This is one part of the list.
# B1: PX14375D-bvu-513-34-513 (Bacteroides vulgatus) (protein)
# chain: TEDTFWKDETDFNLALTSCYTPLKNALNGGYYGTRGVMLRIARADEVDFRNDISDVYTVNRFTNSNTNSLTQGMFYQFYNALYRTNSIMQKLEEKKEQFSTDFQNSVKGECLFIRGFYLFQLAKEFKDAPLRLTASQSPSTFPLAKSSQADIWAQAKEDLKTAASLLPITNKIGKPTQGAAYAALGKIYVYEENWQEAINVLEPLTQNPYTYKLVEDFNWNFDDTHENNAESIFELLIEDVGGTDLWGDGENINSTQSNTRPKEYAAAEVGGWYEANPTQQIMDIFWKEKDKDGNFDYRARCSVAWDYEGCTYYQRPFREVFAQDKWKTYWILKYQNWKTQKDEPAPPKSFINERAIRYADVLLMLAEAYMNKGALDTSIGYINQIRRRANLNDYSGPITKEGVFEDLVHQRAIEFFVEGERFYDLRRWGLLEQTLKTCDDTRYKNYQTGKSDNINKFNYFPIPAKELDTNPLCTPSEGW
# Legend:
# Assay in all cases: glycan array binding signal (z-score within array); higher = stronger binding
# Conditions in all cases: glycan notation: IUPAC condensed, linker removed
# [1] = target: Gal(b1-3)GlcNAc(b1-6)[Gal(b1-3)]GalNAc
# Method in brief: (§1)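 The binding signal is a Z-score computed within each array. Data were drawn from 3228 arrays in the Consortium for Functional Glycomics database, restricted to those with a known protein sequence. Scores were averaged over arrays of the same protein sequence at different concentrations or buffers, and over linkers, and negative values can be taken as non-binding.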
# Gal(b1-3)GlcNAc6S = target: Gal(b1-3)GlcNAc6S
# Method in brief: as §1
# [2] = target: Gal(b1-3)[Fuc(a1-4)]GlcNAc
# Method in brief: as §1
# [3] = target: Gal(b1-3)[Fuc(a1-4)]GlcNAc(b1-2)Man
# Method in brief: as §1
# [4] = target: Gal(b1-3)[Fuc(a1-4)]GlcNAc(b1-2)Man(a1-3)[Gal(b1-3)[Fuc(a1-4)]GlcNAc(b1-2)Man(a1-6)]Man(b1-4)GlcNAc(b1-4)[Fuc(a1-6)]GlcNAc
# Method in brief: as §1
# [5] = target: Gal(b1-3)[Fuc(a1-4)]GlcNAc(b1-3)Gal(b1-3)[Fuc(a1-4)]GlcNAc
# Method in brief: as §1
# [6] = target: Gal(b1-3)[Fuc(a1-4)]GlcNAc(b1-3)Gal(b1-4)[Fuc(a1-3)]GlcNAc
# Method in brief: as §1
# [7] = target: Gal(b1-3)[Fuc(a1-4)]GlcNAc(b1-6)GalNAc
# Method in brief: as §1
# [8] = target: Gal(b1-3)[GlcNAc(b1-6)]GalNAc
# Method in brief: as §1
# [9] = target: Gal(b1-3)[Neu5Ac(a2-6)]GalNAc
# Method in brief: as §1
# [10] = target: Gal(b1-3)[Neu5Ac(a2-6)]GlcNAc(b1-4)Gal(b1-4)Glc
# Method in brief: as §1
# [11] = target: Gal(b1-3)[Neu5Ac(b2-6)]GalNAc
# Method in brief: as §1
# Gal(b1-4)Gal = target: Gal(b1-4)Gal
# Method in brief: as §1
# [12] = target: Gal(b1-4)GalNAc(a1-3)[Fuc(a1-2)]Gal(b1-4)GlcNAc
# Method in brief: as §1
# [13] = target: Gal(b1-4)GalNAc(b1-3)[Fuc(a1-2)]Gal(b1-4)GlcNAc
# Method in brief: as §1
# Gal(b1-4)Glc = target: Gal(b1-4)Glc
# Method in brief: as §1
# Gal(b1-4)Glc6S = target: Gal(b1-4)Glc6S
# Method in brief: as §1
# Gal(b1-4)GlcNAc = target: Gal(b1-4)GlcNAc
# Method in brief: as §1
# [14] = target: Gal(b1-4)GlcNAc(a1-6)Gal(b1-4)GlcNAc
# Method in brief: as §1
# Gal(b1-4)GlcNAc(b1-2)Man = target: Gal(b1-4)GlcNAc(b1-2)Man
# Method in brief: as §1
# [15] = target: Gal(b1-4)GlcNAc(b1-2)Man(a1-3)Man(b1-4)GlcNAc(b1-4)GlcNAc
# Method in brief: as §1
# [16] = target: Gal(b1-4)GlcNAc(b1-2)Man(a1-3)[Gal(b1-4)GlcNAc(b1-2)Man(a1-6)]Man(b1-4)GlcNAc(b1-4)GlcNAc
# Method in brief: as §1
# [17] = target: Gal(b1-4)GlcNAc(b1-2)Man(a1-3)[Gal(b1-4)GlcNAc(b1-2)Man(a1-6)]Man(b1-4)GlcNAc(b1-4)[Fuc(a1-6)]GlcNAc
# Method in brief: as §1
# [18] = target: Gal(b1-4)GlcNAc(b1-2)Man(a1-3)[Gal(b1-4)GlcNAc(b1-2)Man(a1-6)][Gal(b1-4)GlcNAc(b1-4)]Man(b1-4)GlcNAc(b1-4)[Fuc(a1-6)]GlcNAc
# Method in brief: as §1
# [19] = target: Gal(b1-4)GlcNAc(b1-2)Man(a1-3)[Gal(b1-4)GlcNAc(b1-2)Man(a1-6)][GlcNAc(b1-4)]Man(b1-4)GlcNAc(b1-4)[Fuc(a1-6)]GlcNAc
# Method in brief: as §1
# [20] = target: Gal(b1-4)GlcNAc(b1-2)Man(a1-3)[GlcNAc(b1-2)Man(a1-6)]Man(b1-4)GlcNAc(b1-4)GlcNAc
# Method in brief: as §1
# [21] = target: Gal(b1-4)GlcNAc(b1-2)Man(a1-3)[GlcNAc(b1-4)][Gal(b1-4)GlcNAc(b1-2)Man(a1-6)]Man(b1-4)GlcNAc(b1-4)GlcNAc
# Method in brief: as §1
# [22] = target: Gal(b1-4)GlcNAc(b1-2)Man(a1-3)[Man(a1-6)]Man(b1-4)GlcNAc(b1-4)GlcNAc
# Method in brief: as §1
# [23] = target: Gal(b1-4)GlcNAc(b1-2)Man(a1-6)Man(b1-4)GlcNAc(b1-4)GlcNAc
# Method in brief: as §1
# [24] = target: Gal(b1-4)GlcNAc(b1-2)Man(a1-6)[GlcNAc(b1-2)Man(a1-3)]Man(b1-4)GlcNAc(b1-4)GlcNAc
# Method in brief: as §1
# [25] = target: Gal(b1-4)GlcNAc(b1-2)Man(a1-6)[Man(a1-3)]Man(b1-4)GlcNAc(b1-4)GlcNAc
# Method in brief: as §1
# [26] = target: Gal(b1-4)GlcNAc(b1-2)[Gal(b1-4)GlcNAc(b1-4)]Man(a1-3)[Gal(b1-4)GlcNAc(b1-2)Man(a1-6)]Man(b1-4)GlcNAc(b1-4)GlcNAc
# Method in brief: as §1
# [27] = target: Gal(b1-4)GlcNAc(b1-2)[Gal(b1-4)GlcNAc(b1-4)]Man(a1-3)[Gal(b1-4)GlcNAc(b1-2)[Gal(b1-4)GlcNAc(b1-6)]Man(a1-6)]Man(b1-4)GlcNAc(b1-4)GlcNAc
# Method in brief: as §1
# [28] = target: Gal(b1-4)GlcNAc(b1-2)[Gal(b1-4)GlcNAc(b1-4)]Man(a1-3)[GlcNAc(b1-4)][Gal(b1-4)GlcNAc(b1-2)Man(a1-6)]Man(b1-4)GlcNAc(b1-4)GlcNAc
# Method in brief: as §1
# [29] = target: Gal(b1-4)GlcNAc(b1-2)[Gal(b1-4)GlcNAc(b1-4)]Man(a1-3)[GlcNAc(b1-4)][Gal(b1-4)GlcNAc(b1-2)[Gal(b1-4)GlcNAc(b1-6)]Man(a1-6)]Man(b1-4)GlcNAc(b1-4)GlcNAc
# Method in brief: as §1
# [30] = target: Gal(b1-4)GlcNAc(b1-2)[Gal(b1-4)GlcNAc(b1-6)]Man(a1-6)[Gal(b1-4)GlcNAc(b1-2)Man(a1-3)]Man(b1-4)GlcNAc(b1-4)GlcNAc
# Method in brief: as §1
# [31] = target: Gal(b1-4)GlcNAc(b1-2)[Gal(b1-4)GlcNAc(b1-6)]Man(a1-6)[Gal(b1-4)GlcNAc(b1-2)Man(a1-3)]Man(b1-4)GlcNAc(b1-4)[Fuc(a1-6)]GlcNAc
# Method in brief: as §1
binder,measurement,setting,value
B1,glycan array binding signal (z-score),[1],-0.157
same,glycan array binding signal (z-score),Gal(b1-3)GlcNAc6S,-0.185
same,glycan array binding signal (z-score),[2],-0.33
same,glycan array binding signal (z-score),[3],0.741
same,glycan array binding signal (z-score),[4],0.796
same,glycan array binding signal (z-score),[5],-0.32
same,glycan array binding signal (z-score),[6],1.36
same,glycan array binding signal (z-score),[7],-0.242
same,glycan array binding signal (z-score),[8],0.895
same,glycan array binding signal (z-score),[9],-0.671
same,glycan array binding signal (z-score),[10],-1.15
same,glycan array binding signal (z-score),[11],0.076
same,glycan array binding signal (z-score),Gal(b1-4)Gal,-0.025
same,glycan array binding signal (z-score),[12],-0.78
same,glycan array binding signal (z-score),[13],-0.803
same,glycan array binding signal (z-score),Gal(b1-4)Glc,-0.132
same,glycan array binding signal (z-score),Gal(b1-4)Glc6S,-0.696
same,glycan array binding signal (z-score),Gal(b1-4)GlcNAc,0.126
same,glycan array binding signal (z-score),[14],0.583
same,glycan array binding signal (z-score),Gal(b1-4)GlcNAc(b1-2)Man,0.304
same,glycan array binding signal (z-score),[15],-0.543
same,glycan array binding signal (z-score),[16],-0.396
same,glycan array binding signal (z-score),[17],0.126
same,glycan array binding signal (z-score),[18],-1.11
same,glycan array binding signal (z-score),[19],0.329
same,glycan array binding signal (z-score),[20],0.615
same,glycan array binding signal (z-score),[21],0.883
same,glycan array binding signal (z-score),[22],-0.045
same,glycan array binding signal (z-score),[23],-0.721
same,glycan array binding signal (z-score),[24],0.262
same,glycan array binding signal (z-score),[25],-0.717
same,glycan array binding signal (z-score),[26],-0.22
same,glycan array binding signal (z-score),[27],0.036
same,glycan array binding signal (z-score),[28],1.37
same,glycan array binding signal (z-score),[29],-0.748
same,glycan array binding signal (z-score),[30],0.469
same,glycan array binding signal (z-score),[31],-0.056
